# Primary screen of a compound library

Data taken from ChEMBL document CHEMBL3988442, “University of Dundee, Small-Polar-MMV Screening Library” (2021).

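Viability assay of Plasmodium falciparum sporozoites; the read-out is not stated. The concentration is filed as 10 mM, unlikely as a test dose, so the dose is not known. The record gives no direction; compounds that gave an IC50 in retests scored well above the rest, so higher reads as lower viability. Strong results were mostly tested again. Of about 34,000 compounds tested this way, about 280 (0.84%) reached 50% or more in at least one test.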

Each number is a percent effect as filed.
How 0% and 100% were set is not recorded. Most values in the screen are low, and negative values occur.
Compounds were drawn at random from those tested, without regard to their results.
Two or more numbers in one place are separate tests of the same structure; such repeats can differ widely.

SMILES	Percent Effect
Cc1noc(C2CCN(C(=O)c3cc(Br)ccc3F)CC2)n1	-2.676
Cc1ncnc2c1CCN(CC1CCOC1)CC2.O=C(O)C(F)(F)F (centres undefined)	11.72
CCCc1noc(CN2CCC(C(=O)Nc3cnn(CC)c3)CC2)n1	10.92
CCC1CN(C(=O)c2cncc(C)c2)CCC(=O)N1Cc1ccccc1 (centres undefined)	-10.92 and -13.36
CC(C)c1n[nH]c(C2CN(CCc3cccs3)CCO2)n1 (centres undefined)	47.87 and 23.03 and 8.323
COc1cn(-c2ccccc2)nc1C(=O)NCCN1CCCC(C)C1 (centres undefined)	-1.431
COc1ncccc1-c1ncccc1NC(=O)C(C)C	-20.15
CCN(Cc1nc2c(cnn2C)c(=O)[nH]1)Cc1cccs1	-4.624
O=C(NCCn1ccnc1C1CCOC1)c1cccnc1 (centres undefined)	-11.94
CN1CCN(Cc2ccoc2)Cc2cccnc21	-2.573
Cc1cnn(CC2CN(Cc3nc(C)no3)CCO2)c1 (centres undefined)	5.666
Cc1nc(C)n(CC2CN(Cc3ccccc3OC(C)C)CCO2)n1 (centres undefined)	-8.348
Cc1csc(N2CCN(CCCN3CCCC3=O)CC2)n1	-1.221
Cn1ccc(C(=O)N2CCC(Cc3cccc4cccnc34)C2)n1 (centres undefined)	-3.673
CC(CNC(=O)c1ccc(F)cc1Cl)N1CCCC1 (centres undefined)	-12.32
Cn1ccc(NC(=O)Cc2cccc(F)c2)n1	12.85
CN1CCC(c2nnc3n2CCN(S(=O)(=O)c2ccccc2)C3)CC1	7.252
CC1=Nc2c(c(O)nn2C(C)C)C(c2cccnc2)S1 (centres undefined)	0.641
CCC(Nc1ccc(CCN2CCCCC2)cc1)C(N)=O (centres undefined)	-3.581
O=C(c1ccncc1)N1CCC(O)(Cn2ccc3ccncc32)CC1	-2.725
Cn1cnc(S(=O)(=O)N2CCCc3c(F)cc(F)cc32)c1Cl	-11.76
COc1ncccc1CNC1CCc2c(ccc(=O)n2C)C1.O=C(O)C(F)(F)F.O=C(O)C(F)(F)F (centres undefined)	-1.013
CNC(=O)CSc1nc2c(cnn2Cc2ccc(F)cc2)c(=O)[nH]1	-10.74
Cn1ccc(C(=O)N2CCC(Cc3cnc4[nH]ccc4c3)C2)n1 (centres undefined)	-2.132
COc1cccc(C(=O)NCC(O)c2cccs2)c1 (centres undefined)	-36.28 and -41.36 and 57.97
COc1ccc(-c2nnc(SC(C)C(=O)NC3CCCC3)[nH]2)c(OC)c1 (centres undefined)	-16.42
Cc1noc(C(C)C)c1C(=O)NCCC(=O)N1CCCCC1	-1.943
CCN(CC)C1CCN(C(=O)c2cc3cc(C)cc(C)c3nc2C)CC1.Cl	6.928
Cc1cc(C(F)F)nn1C(C)C(=O)NCc1nccn1C (centres undefined)	-34.39
Cc1nn(C(C)C)c(C)c1NC(=O)c1ccncc1	-7.577
COc1cc(CNC2CCc3nc(C)nn3C2)cc2c1OCCO2 (centres undefined)	-3.341
O=C(c1cc2cccc(F)c2[nH]1)N1C[C@@H](O)[C@H](N2CCCC2)C1	3.868
Cc1cnn(CC2CN(CCCc3nc4ccccc4o3)CCO2)c1 (centres undefined)	7.585
COCC(NC(=O)c1cn2ccsc2n1)c1ccnn1C (centres undefined)	0.7162
CCCn1cnnc1CNC1CCCC1	-12.6
Cc1ccc(CNC(=O)N2CCCC(NS(C)(=O)=O)C2)cc1 (centres undefined)	12.82
CN(C)C(=O)N1CCC2(CC1)COCCN(c1ncccn1)C2	11.49
[H][C@]12CC[C@]([H])(C1)N(C(=O)c1cccnc1-c1ccoc1)C2	1.053
Cc1cc2cc(C(=O)N3CC[C@H](O)[C@]4(CCCO4)C3)ccc2o1	-24.03
CC(=O)c1ccc(NCc2cc3n(n2)CCCN(S(C)(=O)=O)C3)nc1	-4.079
CCc1nc(C2CCCN2C(=O)c2ccc3c(c2)nc(C)n3C)no1 (centres undefined)	-10.78
O=C(NC(Cc1ccsc1)c1nccs1)C1CCOCC1 (centres undefined)	-9.123
CCn1cc2c(n1)CN(Cc1ccc(C)o1)CC2COCC1CC1.O=C(O)C(F)(F)F (centres undefined)	1.852
CCS(=O)(=O)Nc1ccc(C(=O)NCCCN2CCCC2)cc1	0.3382
CC(C)n1ncc2cc(NC(=O)N3CCSCC3)cnc21	4.129
CC(C)c1nc(C2CCCN2Cc2ccno2)no1 (centres undefined)	-9.158
O=C(O)C(F)(F)F.O=C(O)C(F)(F)F.[H][C@@]12CN(Cc3cnn(C)c3)C[C@]1([H])OCCN2c1ncccn1	8.754
Cc1cc(CN2CCOCS2(=O)=O)ccc1F	5.765
Cc1ccc(Cn2cc(C)c(N)n2)cc1	13.49
Cc1cc(C)nc(Nc2nccnc2C2CCCN(CCO)C2)n1 (centres undefined)	-0.8244
CCN1Cc2c(C(=O)NC(C)C)ncn2-c2ccccc2S1(=O)=O	3.704
Cn1nc(Cn2cccc2)c2c1CN(Cc1ccsc1)C2.O=C(O)C(F)(F)F	5.151
Brc1ccc(-c2nnc(CN(Cc3cccs3)CC3CCCO3)o2)s1 (centres undefined)	-16.56
CCCn1cc(NC(=O)c2ccc(S(C)(=O)=O)cc2)ccc1=O	-6.389
Cc1cc(C)n(CC2CCCN2CC(=O)NC2CCOCC2)n1 (centres undefined)	-10.14
Cc1cc(OCC(=O)N2CCCC(c3noc(C)n3)C2)no1 (centres undefined)	-10.29
Cc1ncsc1C(=O)NCCSCCCO	-6.767
O=C(c1nc(COc2ccc3c(c2)OCO3)no1)N1CCCC1	-3.947
CCc1ccccc1C(=O)N1CCCC1CC(=O)c1cnn(C)c1 (centres undefined)	-1212
CC(=O)N1CC(c2n[nH]c3ncccc23)C1	10.98
CN(Cc1cn2c(n1)CN(Cc1ccsc1)CC2)Cc1ccco1.O=C(O)C(F)(F)F.O=C(O)C(F)(F)F	5.642
CCOc1nnc(CN2CCN(CCOC)C(C)C2)s1 (centres undefined)	-18.38
COCc1ccc(CNC(=O)C2=NN(c3ccccc3)C(=O)CN2)cc1	3.922
Cc1nc(-c2ccccc2)n(CC(=O)N(C(C)C)C(C)C)n1	3.36
O=C(NCc1ccccc1)c1nn(C2CCS(=O)(=O)C2)c2c1CCCC2 (centres undefined)	-10.73 and -21.96
O=C1NC[C@]2(CC[C@@H](C(=O)N3CCC(O)CC3)CC2)Oc2ccccc21	-10.81
[H][C@@]12C[C@@H](OCc3ccccc3)C[C@]1([H])CN(Cc1cnc(C)nc1)C2	10.39
CC(=O)N(C)Cc1cncc(C2CCCN2C2CCOCC2)n1 (centres undefined)	-2.393
[H][C@@]12CN(Cc3ccoc3)CCO[C@]1([H])CN(C(=O)CS(C)(=O)=O)C2	-2.691
COc1ccc(-c2cc(C3CCOC3)c(C#N)c(N)n2)cn1 (centres undefined)	-21.83 and -16.7 and -8.49
Cc1ccc2nc(CNCCCN3CCCC3=O)cc(O)c2c1	-18.44
[H][C@@]12OCCN(C(=O)c3ccncc3)[C@@]1([H])CC[C@H]2OCCN(C)C	12.02
COCCC(=O)N1C[C@@H](c2cccc(OC)c2)[C@@]2(CCCCC(=O)N2)C1	7.297
NC(=O)C1CCN(C(=O)CCn2c(C(F)(F)F)cc3cccnc32)CC1	4.276
O=C(c1cn2ccsc2n1)N1CCOCC(O)(CN2CCCC2)C1 (centres undefined)	-14.35
COc1c(CNC2CCc3c(Cl)cccc32)c(C)nn1C.Cl (centres undefined)	-9.657
[H][C@@]12CN(C(=O)c3cscn3)C[C@@]1([H])N(CC1CCCC1)C(=O)CO2	-1.745
O=C(Cn1nc2c(cc1=O)CSCC2)NC(Cc1ccccc1)C(=O)O (centres undefined)	-6.579

7 of the entries, repeated:

SMILES	Percent Effect
Cc1nn(C(C)C)c(C)c1NC(=O)c1ccncc1	-7.577
NC(=O)C1CCN(C(=O)CCn2c(C(F)(F)F)cc3cccnc32)CC1	4.276
CN1CCC(c2nnc3n2CCN(S(=O)(=O)c2ccccc2)C3)CC1	7.252
Cc1ccc2nc(CNCCCN3CCCC3=O)cc(O)c2c1	-18.44
O=C(c1cc2cccc(F)c2[nH]1)N1C[C@@H](O)[C@H](N2CCCC2)C1	3.868
Cc1nc(-c2ccccc2)n(CC(=O)N(C(C)C)C(C)C)n1	3.36
COCc1ccc(CNC(=O)C2=NN(c3ccccc3)C(=O)CN2)cc1	3.922